Assay results: article PMC6553703
Read-outs that look alike come from different tables or passages of the source. Results are given in words; binding and its absence hold for the method and conditions named. Binding seen in cells or lysates may run through a third protein. These calls come from enrichment with a bait or labelling near it, and not all partners need be listed. For some assays here: A no says only that the protein was not detected with the bait. Where a sequence is shown, tags or fusion partners need not be part of it. One block for each molecule: values may come before it.

Amino acid sequences for entries named in this document (tags omitted).
UniProt O74424: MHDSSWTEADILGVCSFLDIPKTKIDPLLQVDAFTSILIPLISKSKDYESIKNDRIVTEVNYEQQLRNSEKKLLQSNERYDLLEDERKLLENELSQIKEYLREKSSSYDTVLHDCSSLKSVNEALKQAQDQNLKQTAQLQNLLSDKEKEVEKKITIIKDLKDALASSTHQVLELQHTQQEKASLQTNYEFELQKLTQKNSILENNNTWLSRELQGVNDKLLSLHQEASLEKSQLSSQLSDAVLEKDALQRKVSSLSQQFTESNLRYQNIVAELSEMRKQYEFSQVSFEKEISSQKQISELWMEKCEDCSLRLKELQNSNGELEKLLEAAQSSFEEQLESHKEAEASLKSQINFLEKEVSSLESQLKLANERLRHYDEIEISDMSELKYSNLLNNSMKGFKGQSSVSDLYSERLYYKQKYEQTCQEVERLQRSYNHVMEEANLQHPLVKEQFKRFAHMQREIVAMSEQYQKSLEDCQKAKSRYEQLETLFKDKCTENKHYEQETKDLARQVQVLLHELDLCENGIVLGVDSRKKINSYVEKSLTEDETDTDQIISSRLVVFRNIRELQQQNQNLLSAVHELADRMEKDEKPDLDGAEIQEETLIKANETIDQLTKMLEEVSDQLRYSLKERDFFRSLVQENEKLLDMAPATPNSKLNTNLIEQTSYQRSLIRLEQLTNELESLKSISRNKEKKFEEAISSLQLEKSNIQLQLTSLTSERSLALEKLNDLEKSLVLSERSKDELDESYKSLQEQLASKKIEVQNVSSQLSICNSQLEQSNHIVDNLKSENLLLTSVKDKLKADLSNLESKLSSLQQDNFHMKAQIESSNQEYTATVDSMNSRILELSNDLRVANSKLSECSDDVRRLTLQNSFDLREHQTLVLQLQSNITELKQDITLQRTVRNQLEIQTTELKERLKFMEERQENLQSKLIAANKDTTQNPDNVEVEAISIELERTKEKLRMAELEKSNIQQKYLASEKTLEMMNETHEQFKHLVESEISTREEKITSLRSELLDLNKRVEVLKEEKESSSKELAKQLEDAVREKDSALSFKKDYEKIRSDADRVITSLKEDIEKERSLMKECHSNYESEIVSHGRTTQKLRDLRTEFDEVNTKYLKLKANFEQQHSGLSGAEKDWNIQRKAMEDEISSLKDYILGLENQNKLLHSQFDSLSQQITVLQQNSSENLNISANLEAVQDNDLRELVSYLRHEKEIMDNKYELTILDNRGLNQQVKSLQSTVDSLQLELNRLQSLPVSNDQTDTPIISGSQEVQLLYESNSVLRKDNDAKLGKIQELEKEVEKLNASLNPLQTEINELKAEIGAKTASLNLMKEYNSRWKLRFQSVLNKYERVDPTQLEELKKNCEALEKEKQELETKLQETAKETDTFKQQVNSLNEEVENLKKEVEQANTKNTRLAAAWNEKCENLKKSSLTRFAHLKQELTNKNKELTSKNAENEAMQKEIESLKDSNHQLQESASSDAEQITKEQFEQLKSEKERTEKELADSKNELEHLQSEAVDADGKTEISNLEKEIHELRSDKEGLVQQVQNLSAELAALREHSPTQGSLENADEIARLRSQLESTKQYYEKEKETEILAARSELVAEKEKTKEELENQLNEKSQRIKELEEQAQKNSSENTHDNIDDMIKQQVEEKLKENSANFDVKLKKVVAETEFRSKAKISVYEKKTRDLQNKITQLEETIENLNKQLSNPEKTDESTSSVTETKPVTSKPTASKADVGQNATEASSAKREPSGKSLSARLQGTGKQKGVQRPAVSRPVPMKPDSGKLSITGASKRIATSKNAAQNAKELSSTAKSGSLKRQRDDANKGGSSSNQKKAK

Key:
Experiment in all cases: affinity purification with mass spectrometry; S. pombe whole-cell extract (50 mM HEPES pH 7.5, 150 mM NaCl, 1% Triton X-100, 1 mM EDTA, 2 mM PMSF) incubated with rabbit anti-GFP antibody; collected on Protein A Sepharose beads, washed 4-5 times with lysis buffer; SDS-PAGE and LC/MS/MS; two independent experiments
[1] = biological target: T1, GFP-spNup131 (S. pombe) (UniProt Q9P797)
T1 sequence: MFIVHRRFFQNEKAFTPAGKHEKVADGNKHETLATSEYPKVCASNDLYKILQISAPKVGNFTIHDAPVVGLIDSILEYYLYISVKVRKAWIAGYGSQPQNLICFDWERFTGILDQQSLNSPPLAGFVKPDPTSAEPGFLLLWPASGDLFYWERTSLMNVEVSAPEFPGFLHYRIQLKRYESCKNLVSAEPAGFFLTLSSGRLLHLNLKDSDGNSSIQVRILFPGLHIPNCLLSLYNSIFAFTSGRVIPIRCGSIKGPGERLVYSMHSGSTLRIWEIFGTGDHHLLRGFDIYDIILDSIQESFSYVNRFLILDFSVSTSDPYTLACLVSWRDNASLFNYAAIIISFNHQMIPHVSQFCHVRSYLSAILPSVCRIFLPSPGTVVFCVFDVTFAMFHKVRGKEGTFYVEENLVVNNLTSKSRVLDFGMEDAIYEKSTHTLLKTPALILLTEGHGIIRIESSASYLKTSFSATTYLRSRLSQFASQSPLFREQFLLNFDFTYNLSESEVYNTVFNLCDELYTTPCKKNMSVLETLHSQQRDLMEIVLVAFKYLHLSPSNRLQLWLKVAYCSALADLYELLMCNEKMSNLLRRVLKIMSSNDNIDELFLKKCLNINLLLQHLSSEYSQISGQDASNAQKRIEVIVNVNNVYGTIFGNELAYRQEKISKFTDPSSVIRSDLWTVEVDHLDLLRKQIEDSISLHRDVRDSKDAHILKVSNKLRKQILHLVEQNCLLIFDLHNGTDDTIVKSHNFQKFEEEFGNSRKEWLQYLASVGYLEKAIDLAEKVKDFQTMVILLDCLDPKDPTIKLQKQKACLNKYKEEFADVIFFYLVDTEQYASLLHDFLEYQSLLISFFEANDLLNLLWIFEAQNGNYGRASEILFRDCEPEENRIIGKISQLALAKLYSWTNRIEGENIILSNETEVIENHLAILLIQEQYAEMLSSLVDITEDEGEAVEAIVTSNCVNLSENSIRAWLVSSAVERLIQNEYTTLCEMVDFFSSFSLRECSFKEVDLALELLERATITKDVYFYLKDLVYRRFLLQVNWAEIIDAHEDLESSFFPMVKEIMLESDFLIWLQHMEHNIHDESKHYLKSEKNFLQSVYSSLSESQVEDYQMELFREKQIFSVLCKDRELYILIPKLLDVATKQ

[2] = biological target: T2, GFP-spNup132 (S. pombe) (UniProt Q9UTH0)
T2 sequence: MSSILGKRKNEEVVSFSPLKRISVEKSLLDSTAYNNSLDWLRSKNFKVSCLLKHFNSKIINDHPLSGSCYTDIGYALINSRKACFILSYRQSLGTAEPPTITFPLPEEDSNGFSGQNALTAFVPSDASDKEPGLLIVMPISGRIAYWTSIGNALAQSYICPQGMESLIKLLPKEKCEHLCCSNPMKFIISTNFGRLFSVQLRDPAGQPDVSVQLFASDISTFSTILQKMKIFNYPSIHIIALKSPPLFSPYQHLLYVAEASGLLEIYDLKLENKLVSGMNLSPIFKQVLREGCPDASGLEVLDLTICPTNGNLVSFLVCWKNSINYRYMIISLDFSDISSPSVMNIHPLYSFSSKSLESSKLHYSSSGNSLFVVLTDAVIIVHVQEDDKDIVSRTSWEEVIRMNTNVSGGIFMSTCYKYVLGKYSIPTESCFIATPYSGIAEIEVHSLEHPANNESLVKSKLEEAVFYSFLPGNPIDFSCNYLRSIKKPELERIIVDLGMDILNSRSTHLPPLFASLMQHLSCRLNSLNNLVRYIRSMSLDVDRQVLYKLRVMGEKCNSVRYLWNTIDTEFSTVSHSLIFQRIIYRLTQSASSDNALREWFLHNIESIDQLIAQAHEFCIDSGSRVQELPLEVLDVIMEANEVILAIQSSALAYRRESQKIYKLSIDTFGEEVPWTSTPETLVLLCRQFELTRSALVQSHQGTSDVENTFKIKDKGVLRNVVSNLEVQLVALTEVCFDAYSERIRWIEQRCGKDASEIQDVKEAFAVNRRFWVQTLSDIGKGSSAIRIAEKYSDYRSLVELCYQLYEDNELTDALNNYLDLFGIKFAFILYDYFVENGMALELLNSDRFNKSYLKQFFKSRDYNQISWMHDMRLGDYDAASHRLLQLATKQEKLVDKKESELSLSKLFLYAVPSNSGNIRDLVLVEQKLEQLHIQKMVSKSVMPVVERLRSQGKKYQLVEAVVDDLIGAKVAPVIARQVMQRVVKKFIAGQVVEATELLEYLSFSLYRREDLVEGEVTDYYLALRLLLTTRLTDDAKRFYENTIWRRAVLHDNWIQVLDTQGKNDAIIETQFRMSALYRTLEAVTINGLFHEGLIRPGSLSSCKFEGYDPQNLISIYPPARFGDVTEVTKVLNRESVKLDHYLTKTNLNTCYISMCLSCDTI

[3] = biological target: T2, GFP-spNup132 (S. pombe); remark: listed apart in the source
[4] = biological target: T1, GFP-spNup131 (S. pombe); remark: listed apart in the source

binding [1]: binds
Molecule: spFar8 (S. pombe (endogenous in S. pombe cells))

binding [2]: binds
binding [1]: no binding
Molecule: spNup211 (from UniProt O74424 1-1837)

binding [3]: binds
binding [4]: binds
B1: spNup85 (protein, UniProt Q9UUE5 1-675)
chain: MESSDEVDLPVYHLQNAPIENGKLNDWRSKGRTVAFKLHPFLRKGLAYINNKEFDENTLKSDKFEEVESLVYEFSTPSTLIEPNYLLTAWHELWEELQDTYMTPILDSEANLLLLTQFYGKISSLFRSKIIQVLEELQSRINEGEKDCQPVLDSLWEVESAWRCAEAIYFPPSSPYTLSTGILDWVNAYDPQPIADDGLEIMAYRIPYQHPEFWPYVNKTAIRGLFEQTISCLEMSGLTKEWPVLKETVDELIDILRYSPCTHQKRIRSVSDFERRWKLWRSRLANLRHVVKKHRDIDSEVLDDFVVLLDILNGNKEVIMLSCAHWQEYFSALAFLYGPLDCKNPEDISLLYQLATGEDSKFYVNGTIEYEQICVNLCSNEPLNAIKHAYLLDLGLAVHLADLLSKSGHLRDYITEEYPITLREHLILEYGQCVLESRNLWQTSFAYWKCVADSGYQRIKACIPYVPLSDVDAKETALQLCKQLKLRDEAQLVLTHWADELIARNHYGEALIALDNAANYSALNRVTWELFDICIAEKKSFSPDKDELLYELFSSPKACTPTLASIISPAATIHQYFFYLQHKKELNASELLVGLLTMVDFPSSRFPKLLELLHEFLNNPLQSNSTDFKLSLVNVYDCIAVLQDQQSTVKDQQLLLSIHERLSSAISWYFLHLKK

binding [3]: binds
binding [4]: binds
B2: spNup107 (protein, UniProt Q10331 1-794)
chain: MHQNALNNATLNVLGHKKNGSSSIQELIEMDEEEAEMNQNVVCIGPNETAVSVELGDEYEKFNIITSLKKDNLFSKDGLLYAYYELCQEKFEKCLKEDDEEWIELWDLESRTWDLIQRLYSFRLSEQQGHIQSHAFSSRAVLEEEYYSQNPEAFENNIVFNWARDNSSDPPSIEIRGNRWFYTREDIKMKNRGGSRFSSNISGTIVSNLDPDADIRDDKRLDERDDNFERQFFHTAFCLFRSGSFEELLELCRRTGNHWRSASLQGILEYRDNLIDDVLQSETSGNKRKELLRRSCLALTKNKRIDSYERALYGALCGDLNSVLDVCTTWEDAMWAYYNSMTQYNLDVYLSSKAPQTETQLPPVDSGLGLTPELIFNSLSNSSIASIQEEASHPLIKLQTHIICNKISEILSSAHIQLEAIRTGNAPESGDLVTPPLLRILTHIILFLKISGLAVDEYTSDSIIQAYIELLASAKKVNLVPLYIQYLSNQVQYEAYSRFLILVDEESARSEQLQLAKKYSLDINHAALLAVEYVYDEVVSVSPEEVHTVYLKSIEEPVEPSYKKLICTLEWLLITSQTDELLRFANLVYRFFLSIGELNSAYDLYTHIPSDALNTLSSSDGEPENDSKFRDAYELMNYRALCRALKFYQEWEELSKQEVFEDSAVTKASTSYKVWKKKLNFASRKCVKSFTDLLQANWLHPSTLELKPDDDPLLYKTLMTIRNLYVPELILGLHNVYFSLEDYDSCFALANEVASEDLKLYHCLIKSGRLVEYVSYLGKAGECSLSTPNGLFSL

binding [4]: binds
B3: spNup146 (protein, UniProt Q09847 1-1325)
chain: MNAENTFSILNTNEPNAGGSQVTESEIEEEDIEFLSFAALKIGATSSLSNSSLGLPEYSNLFAINNLKSLFVAGVPNYLIIGSTLDLQKSLIDADENVDANVLKDSASIRHVSLPDAKFSMVSFSSNGEFVIAYDFVSFELSVYETDALLKNSATSIYKAVFPDLVQVLPNPEINNLVILRNLKLEVFLLSLSKFQVESPLAKDATCAAWSRRGKQCVIGFNNGTMSQYTPAGEIKLRIPRPPSLENYFVECISWIENREFVVFYSPLTSLSNESDEPPHESECFVISVGMNGHFNFGKAGDPTPPFGAVNRRDHHYIASLHAWKPDLRSLVVVANTASADLGVLALSMEKNQWSILNIVDETKRASLPYSNKKDSDSSPTALVMDFTATDRISKPLDPTEAPADCSPLPIVWVFNDEFQLVAYRIFYADAISKSIDYPEMNVIKDKNKDSTVRASNNENIPTPDKQASPFVKNLSSTSSPFSQSSAFGNFKFGQATSFDKGLSTDASSGAKSNTPVFGQPSTFGQAPVFGQPSAFGQAPVFGQPSAFGQSSFSFGTSNMNQKLDFGTFKSPLSGAATGEAKTNLEKAVTSASGKASFTGFAPSQSTTSGLNFDSIPKDNEAASIFGSSQVSTKNTSGFQFSNNTLLADNVDEDIESDHDTKIEELANSDVEPSTEQNIGGDVSWGASTFQSKPQPSFSFGLTLDDKSNTPGKNFSIFGKTAETQVEQKKPENNVLTKPFSFAPSDKSMFAANIPSAGEGLDQQKTSKALPSTGITKLSENDNEKAEESNETKGFNTTIAKQNDKSSKSEGKASVANMSALNKSTNNETSDSKPSLKSPLFNFSADAPTFTFNKPSETPPFSFNKPLVEKESKQDVSDTSDRSPFSFKAFGIDSKKSPTPEPTEMAESNISEESEGWKLIEQPNVESEIEDQDEESSDLNGKRRSTPPKIHEVGVNKMLDVVPKEKRDLNSFFPKQPLVVQSTDKNKKEPQESLEDEILSAEGFSEVEAANKISRFEPFSSPKLKLATSDNAPEKYVFEESESSDLEEGPVPLRNLESLADLPEAESNEKLPMVNTFERLYLQFKNELDLVWQNINIIAEYIEGQTSTPSAVSEQATMAMLSQNTEELEDLLDTVTSFSAFCSDYSKQIDYLEACLVRINAKRIQVTRLLKALTNPAFEKQMELRQLGPEALRRQKELRLKMEKVLKSLSTLEQQAVDARMSDTRRFKKPTLGSIEVAYSRIATLLGQRLKQLYKLEKDIKRMATKKKMITKKSMSSDMMTQFRALGISQSSTKQVSAHYLREFERQDAFRNGVFKRLTSLKKAD
